Reference: PubChem BioAssay AID529 (NMMLSC, 2006)
The whole screen tested about 24,000 compounds, of which about 50 (0.2%) were called active. The inconclusive results got no clear call from the source; some entries with a clear call stand among them for comparison.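 Rule for the calls: active = inhibition above 50%; inconclusive = compound itself fluorescent, judged against control cell fluorescence; inactive = the rest.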

The chains behind the UniProt entries cited, without tags or fusion partners.
UniProt P13612, whole entry, looked up: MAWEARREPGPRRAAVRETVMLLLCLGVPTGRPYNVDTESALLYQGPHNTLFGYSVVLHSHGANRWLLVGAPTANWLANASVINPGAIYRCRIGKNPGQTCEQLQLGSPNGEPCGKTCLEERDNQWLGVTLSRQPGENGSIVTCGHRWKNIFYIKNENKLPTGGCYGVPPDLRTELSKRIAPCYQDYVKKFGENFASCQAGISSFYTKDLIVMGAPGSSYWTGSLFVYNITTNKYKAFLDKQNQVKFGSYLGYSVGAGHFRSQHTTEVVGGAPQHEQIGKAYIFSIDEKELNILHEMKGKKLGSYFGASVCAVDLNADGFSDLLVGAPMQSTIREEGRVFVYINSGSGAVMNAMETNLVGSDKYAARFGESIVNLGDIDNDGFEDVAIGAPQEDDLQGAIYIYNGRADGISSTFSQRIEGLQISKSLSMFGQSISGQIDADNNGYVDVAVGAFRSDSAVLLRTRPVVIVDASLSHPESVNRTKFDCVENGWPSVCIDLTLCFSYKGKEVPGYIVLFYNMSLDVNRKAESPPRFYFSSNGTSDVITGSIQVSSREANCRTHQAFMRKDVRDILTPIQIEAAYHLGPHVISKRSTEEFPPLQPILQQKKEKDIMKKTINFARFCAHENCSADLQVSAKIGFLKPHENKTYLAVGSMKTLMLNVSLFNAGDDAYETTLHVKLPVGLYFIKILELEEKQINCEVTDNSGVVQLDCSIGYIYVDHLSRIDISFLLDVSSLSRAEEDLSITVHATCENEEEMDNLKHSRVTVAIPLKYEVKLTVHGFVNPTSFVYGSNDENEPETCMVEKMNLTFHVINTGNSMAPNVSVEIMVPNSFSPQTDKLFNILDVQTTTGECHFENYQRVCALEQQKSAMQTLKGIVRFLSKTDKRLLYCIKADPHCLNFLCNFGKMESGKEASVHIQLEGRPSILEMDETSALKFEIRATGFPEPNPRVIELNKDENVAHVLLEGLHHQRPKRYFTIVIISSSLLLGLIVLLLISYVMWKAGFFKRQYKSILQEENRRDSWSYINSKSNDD

Each compound was assayed against Integrin alpha-4 (Homo sapiens) (UniProt P13612) (assay: blockers of LDV-FITC ligand binding on VLA-4 – Jurkat cells, Mn2+ activated, primary screen (AID 529;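 for inhibition: 0% = Mn2+ stimulated cells lacking compound and 100% = ligand binding without Mn2+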)). Conditions: LDV-FITC binding with Mn2+, flow cytometry; active compounds read high, screened at 10 µM (by protocol), 100% = Mn2+-driven binding gain fully reversed unless noted.

Compound | inhibition
S=c1[nH]nc(-c2ccco2)n1-c1cccc2ccccc12 | inconclusive
CC(=O)N1CCc2cc(S(=O)(=O)NC(CC(C)C)C(=O)N3CCn4c3nc3ccccc34)ccc21 (stereo not drawn) | inactive: -13%
O=C(OCn1nnc2ccccc2c1=O)C1CCN(S(=O)(=O)c2cccs2)CC1 | inactive: -10.5%
Cc1oc(-c2ccc(Cl)cc2)nc1CN1CCC(C(=O)NCCCN2CCCC2=O)CC1 | inactive: 6%
Cc1cc(N2CCOCC2)nc2ccc(NC(=O)CCC(=O)N3CCCC(C)C3)cc12 (stereo not drawn) | inactive: 8%
CCN(CC)CCn1c(=N)n(CCO)c2ccccc21 | inactive: -1%
CCC(C)(NC(=O)CNC(C)=O)C(=O)NC1CCCCC1 (stereo not drawn) | inconclusive
Cc1noc(C)c1S(=O)(=O)N(CC(=O)N1CCCCCC1)c1ccc(C(C)C)cc1 | inconclusive
O=C(C(NS(=O)(=O)c1cccs1)c1ccccc1)N1CCN(c2ccccc2)CC1 (stereo not drawn) | inconclusive
CCC(C)NC(=O)CS(=O)Cc1nc(-c2cccc(C)c2)oc1C (stereo not drawn) | inconclusive
O=C1CCCCCC1C1(O)C(=O)Nc2ccc(Br)cc21 (stereo not drawn) | inconclusive
CCc1cccc(NC(=O)CN(c2ccc(OC)cc2)S(=O)(=O)c2c(C)n[nH]c2C)c1 | active: 62%
O=c1cc(CO)oc(CN2CCN(c3ccccc3F)CC2)c1O | inconclusive
CCC(Sc1nc(-c2ccccc2)c(C#N)c(=O)[nH]1)C(=O)Nc1cc(C)on1 (stereo not drawn) | inactive: -5.5%
COc1ccc(-c2cc(C(F)F)n3ncc(C(=O)NCCCN4CCCC4=O)c3n2)cc1 | inconclusive
Cc1ccc2c(c1)NCC(C(=O)NC1CCCCC1)O2 (stereo not drawn) | inconclusive
CCOc1ccc(-c2noc(=O)[nH]2)cc1 | inconclusive
CN(CC(=O)NCc1ccco1)S(=O)(=O)c1cccc2cccnc12 | inconclusive
COc1ccc(-n2nnc3c(SCC(=O)Nc4ccc5c(c4)OCCO5)ncnc32)cc1 | inconclusive
CCOC(=O)Cn1c(=O)oc2cc(S(=O)(=O)NCC3CCCO3)ccc21 (stereo not drawn) | inconclusive

In another format: entries from further up.
O=C(OCn1nnc2ccccc2c1=O)C1CCN(S(=O)(=O)c2cccs2)CC1
  inhibition: inactive: -10.5%
CCOC(=O)Cn1c(=O)oc2cc(S(=O)(=O)NCC3CCCO3)ccc21 (stereo not drawn)
  inhibition: inconclusive

Sorted by length of the SMILES (high to low): part of the list above
Compound | inhibition
Cc1oc(-c2ccc(Cl)cc2)nc1CN1CCC(C(=O)NCCCN2CCCC2=O)CC1 | inactive: 6%
CN(CC(=O)NCc1ccco1)S(=O)(=O)c1cccc2cccnc12 | inconclusive
Cc1ccc2c(c1)NCC(C(=O)NC1CCCCC1)O2 (stereo not drawn) | inconclusive

Following part

Compound | inhibition
Cc1ccc(NC(=O)CCCC(=O)O)c(Br)c1 | inconclusive
NS(=O)(=O)c1cc2c(cc1C(F)(F)F)NC(Cc1ccccc1)NS2(=O)=O (stereo not drawn) | inactive: -16.5%
CCC(C(=O)OCC(=O)Nc1c(C)n(C)n(-c2ccccc2)c1=O)c1ccccc1 (stereo not drawn) | inconclusive
COc1ccc(-c2cn3c(C)c(C(=O)NCCN4CCOCC4)sc3n2)cc1 | inconclusive
COCC(=O)Oc1c(S(=O)(=O)c2ccc(C)cc2)c(C)nn1-c1ccccc1 | inconclusive
Cn1c(C(=O)NCCN2CCc3ccccc3C2)cc2c(=O)[nH]c3ccccc3c21 | inconclusive
CCCc1cc(C(=O)Nc2cc(Br)ccc2O)no1 | inconclusive
CC(=O)Nc1ccc(S(=O)(=O)NCCc2csc(C)n2)cc1 | inconclusive
COc1ccc(NC(=O)c2nc3nc(C)cc(C(F)F)n3n2)cc1OC | inconclusive
N#CCCn1cnc2ccccc21 | inactive: -16.5% [active compounds read high, 100% = Mn2+-driven binding gain fully reversed, screened at 10 µM (by protocol)]
COc1cc(-c2nnc(SCC(=O)c3ccccc3)o2)cc(OC)c1OC | inconclusive
COc1cccc(-n2nnc3c(=O)n(CC(=O)N4CCC(Cc5ccccc5)CC4)cnc32)c1 | active: 74%
COc1ccc(N2C(=O)CC(N3CCN(S(=O)(=O)c4c(F)cccc4F)CC3)C2=O)cc1OC (stereo not drawn) | inconclusive
CCn1cc(C(=O)N2CCN(C3CCCCC3)CC2)c2cc(OC)c(OC)cc2c1=O | inconclusive
Cc1cccn2c(=O)c3cc(C(=O)NCC4CCCO4)n(C)c3nc12 (stereo not drawn) | inconclusive
CCCCCn1c(=O)[nH]c2cc(C(=O)NCCCN3CCC(C)CC3)ccc2c1=O | inactive: 18%
CCN1C(=O)C2(C(C#N)=C(N)Oc3cc(C)oc(=O)c32)c2ccccc21 (stereo not drawn) | inconclusive
O=C(c1ccc2c(c1)OCCO2)C1CCN(C(=O)c2ccc(F)cc2)CC1 | inconclusive
Cc1ccsc1-c1nc(CSCC(=O)NCc2ccc3c(c2)OCO3)c(C)o1 | inconclusive
C1CNCCNCCNCCN1 | inactive: -8%

Compound | inhibition
O=C(Cc1ccccc1)N1CCCC(c2nc(-c3cccs3)no2)C1 (stereo not drawn) | inconclusive
CCOC(=O)c1oc2ccc(S(=O)(=O)N3CCOCC3)cc2c1C | inconclusive
CCOC(=O)CSc1nc2ccccc2n1CC(=O)N1CCN(c2ccccc2)CC1 | inactive: 1%
CC(=O)c1c[nH]c2ccc(C)cc2c1=O | inconclusive
Cc1ccccc1Cn1c(=O)c2c(nc3n2CCN3Cc2ccco2)n(C)c1=O | inactive: 9%
CCCOc1ccc(OC(=O)c2ccc(Br)o2)cc1 | inactive: -8%
c1ccc(Nc2nc3ccccc3n3cnnc23)cc1 | inconclusive
CC1(C)CC(=O)C=C(NCCN2CCN(C(=O)Nc3ccccc3)CC2)C1 | inactive: -12.5%
CCCN(CCC)C(=O)CSc1nc2n[nH]c(C)c2c(=N)n1-c1ccc(OCC)cc1 | inconclusive
Cc1ccc(C)c(N(CC(=O)NCc2ccco2)C(=O)CCC(=O)Nc2ccccn2)c1 | inactive: -3% [active compounds read high, 100% = Mn2+-driven binding gain fully reversed, screened at 10 µM (by protocol)]
CCOC(=O)C1CCN(C(=O)Cc2c(C(=O)O)[nH]c3ccccc23)CC1 | inconclusive
Cc1ccc2nc(C)cc(NCCO)c2c1 | inconclusive
CCOC(=O)C(NC(C)=O)(Nc1ccc(S(=O)(=O)Nc2cc(C)nc(C)n2)cc1)C(F)(F)F (stereo not drawn) | inactive: 36%
N#CC1=C(N)n2c(s/c(=C\c3ccco3)c2=O)=C(C#N)C1c1ccco1 (stereo not drawn) | inconclusive
COc1ccc(C2C(C(=O)N3CCN(c4ccccc4F)CC3)c3ccccc3C(=O)N2C)cc1 (stereo not drawn) | inactive: 16%
CCN1CCN(c2cc(C)c3cc(NC(=O)Cc4ccc(OC)c(OC)c4)ccc3n2)CC1 | inactive: 19%
CC(C)Oc1ccc(C(CC(=O)O)NC(=O)C2CCCCC2)cc1 (stereo not drawn) | active: 96.5%
CCOc1cc2[nH]c(=O)n(CCCCC(=O)NC3CCCCCC3)c(=O)c2cc1OCC | active: 66.5%
